Results published in publication PMC3832600.
No constants are given. Whether binding was seen depends on the method and setting. Some binding calls cover weakened binding; strength is not graded here.

Sequences of proteins named here, by UniProt entry; tags and fusion partners are left off. Residues count along the entry.
UniProt P05673, residues 26-221: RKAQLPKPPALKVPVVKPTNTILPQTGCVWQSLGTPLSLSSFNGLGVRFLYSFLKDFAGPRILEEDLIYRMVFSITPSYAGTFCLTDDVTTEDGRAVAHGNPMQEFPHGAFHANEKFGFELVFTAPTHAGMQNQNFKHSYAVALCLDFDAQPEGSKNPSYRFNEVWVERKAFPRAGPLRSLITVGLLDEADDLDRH

Molecular target: truncated Alfalfa mosaic virus coat protein (Alfalfa mosaic virus) (UniProt P05673)
Assay: SEC + other: negative-stain transmission EM and DLS; VLPs assembled in planta and purified from N. benthamiana. SDS-PAGE, Western blot and N-terminal sequencing of the purified particles. Analytical SEC on an SRT-1000 column in 50 mM phosphate buffer. DLS at 25°C.

truncated Alfalfa mosaic virus coat protein (from UniProt P05673 26-221) (domain or fragment)
binding: binds
